One molecule from paper PMC6629148 can be followed below.

Amino acid sequences for entries named in this document (tags omitted).
UniProt P28033: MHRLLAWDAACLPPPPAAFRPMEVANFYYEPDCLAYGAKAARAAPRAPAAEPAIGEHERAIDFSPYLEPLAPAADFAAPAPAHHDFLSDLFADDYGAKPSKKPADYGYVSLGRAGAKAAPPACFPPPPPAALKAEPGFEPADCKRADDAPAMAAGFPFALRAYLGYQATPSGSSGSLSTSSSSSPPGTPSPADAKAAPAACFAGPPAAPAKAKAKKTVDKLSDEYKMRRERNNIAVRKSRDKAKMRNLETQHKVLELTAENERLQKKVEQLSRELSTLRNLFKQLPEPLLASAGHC

For assay [1], the target named is T1, Flag-CEBPδ (CCAAT/enhancer binding protein delta) (UniProt Q00322).
T1 sequence: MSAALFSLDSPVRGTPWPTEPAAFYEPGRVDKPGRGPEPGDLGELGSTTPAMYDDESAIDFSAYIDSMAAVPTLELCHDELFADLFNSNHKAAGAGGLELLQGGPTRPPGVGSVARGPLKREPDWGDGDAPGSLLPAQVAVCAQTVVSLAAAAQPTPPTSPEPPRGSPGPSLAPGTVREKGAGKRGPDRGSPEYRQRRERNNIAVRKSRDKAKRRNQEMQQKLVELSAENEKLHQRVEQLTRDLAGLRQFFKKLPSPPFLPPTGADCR
Nature of the assay: co-IP; lysates of 293FT cells transfected with HA-IRX5 and Flag-CEBPβ or Flag-CEBPδ; incubated with Anti-FLAG M2 Affinity Gel at 4°C overnight; washed with lysis buffer; SDS-PAGE and immunoblotting.

Assay [2] addresses Flag-CEBPβ (CCAAT/enhancer binding protein beta) (UniProt P28033). Described as above.

These are yes or no findings as the source states them, for the method shown. In cells and extracts the contact can be indirect. Some binding calls cover weakened binding; strength is not graded here. Where a sequence is shown, tags or fusion partners need not be part of it.

B1: HA-IRX5 (iroquois homeobox 5) (protein, UniProt Q9JKQ4 1-484)
chain: MSYPQGYLYQPSASLALYSCPAYSTSVISGPRTDELGRSSSGSAFSPYAGSTAFTAPSPGYNSHLQYGADPAAAAAAAFSYVGSPYDHTPGMAGSLGYHPYAAPLGSYPYGDPAYRKNATRDATATLKAWLNEHRKNPYPTKGEKIMLAIITKMTLTQVSTWFANARRRLKKENKMTWTPRNRSEDEEEEENIDLEKNDEDEPQKPEDKGDLEGPESGGAEQKATAGCERLQGPLSPAGKETEGSLSDSDFKESSSEGRHDELPRPPRAGESSPAGPATARLAEDAGPHYPASVPAPGPHPSAGELPPGSGGSSVIHSPPPPPPPPPAVLAKPKLWSLAEIATSSDKVKDGGGGSEGSPCPPCPGPMGGQTLGGSRASPAPAPARSPSAQCPFPGGTVLSRPLYYTAPFYPGYTNYGSFGHLHGHPGPGPSPTAGPGSHFNGLNQTVLNRADVLAKDPKMLRSQSQLDLCKDSPYELKKGMSDI
As to B1, the binding result in assay [1] and in assay [2] was “binds” throughout.
